From PubChem BioAssay AID1347075 (National Center for Advancing Translational Sciences (NCATS), 2019)
Values joined by “and” are separate entries in the source; they are usually repeats but may differ in a detail not shown here. Equal entries are not always repeated. Among all 400,000 compounds or so, about 5,500 (1.4%) were called active. The inconclusive results got no clear call from the source; some entries with a clear call stand among them for comparison. The call rests on the fitted dose curve; in most records, active means well fitted cell-killing curve with a large enough effect; inconclusive means small, poorly fitted or top-dose-only effect, or effect the other way; inactive means flat fitted curve, though single readings scatter. Potencies beside an inconclusive call are fits to weak or partial responses and may not hold up.

assay: qHTS assay for MDR1-selective chemotherapeutics: Primary screen using the parental adenocarcinoma cell KB-3-1; conditions: KB-3-1 viability, CellTiter-Glo ATP luminescence, 72 h; activity change, negative = cytotoxic: at 46.1 µM (top of the series); further: nearly all actives have a fitted effect of over 60% in size
Method in brief: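 Multi-concentration cytotoxicity screen in KB-3-1 cells grown in DMEM lacking phenol red with 10% FBS. After 72 h at 37 °C with compound, ATP-dependent luminescence was recorded.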
On the % scale 0 is the no-effect control and ±100 the full control effect; potency means the concentration at half of the fitted maximal effect.

Row | Compound | activity change, negative = cytotoxic | Potency
1 | Cc1ccccc1OCC(=O)OCC(=O)Nc1ccc(Cl)cn1 | inactive: 1.76% | –
2 | CCOC(=O)C1=CC[C@@H](c2ccco2)N(S(=O)(=O)c2ccc(C)cc2)[C@H]1C(=O)OCC | inconclusive: -7.16% | –
3 | CC1CN(C(=S)NC2CCCC2)CC(C)O1 (configuration not stated) | inactive: -11.5% | –
4 | C=CS(=O)(=O)N(Cc1ccccc1)[C@H](CO)CC(C)C | – | inconclusive: 23.1 µM [cytotoxic, partial curve, poor fit] and inconclusive: 20.6 µM [cytotoxic, single point]
5 | O=C(CNC(=O)N1CC(=O)Nc2ccccc21)Nc1ccccc1F | inactive: -0.734% | –
6 | CN(Cc1ccccc1)C(=O)c1cccc(NC(=O)Cc2ccc(NC(=O)C3CCN(C(=O)CCc4ccccc4)CC3)cc2)c1 | – | inconclusive: 18.4 µM [cytotoxic, single point]
7 | O=C(CNc1cccc(S(=O)(=O)N2CCCC2)c1)Nc1ccc(C(F)(F)F)cc1 | – | inconclusive: 20.6 µM [cytotoxic, single point]
8 | COC(=O)c1ccccc1NC(=S)NC(=O)COc1ccccc1Cl | inactive: 0.27% | –
9 | CCCCc1ccc(NC(=O)COC(=O)c2ccccc2OCC(=O)Nc2ccc(Br)cc2)cc1 | – | inconclusive: 10.3 µM [rising, partial curve, poor fit]
10 | COC(=O)c1scc(C)c1N1C(=O)c2ccccc2C1=O | inactive: 1.78% | –
11 | C=CCCC(=O)Nc1nc(C)c(-c2csc(Nc3cccc(OC)c3)n2)s1 | – | inconclusive: 14.6 µM [cytotoxic, single point]
12 | CCN(CC)CCn1c2c(c(SCC(=O)Nc3nc4ccccc4s3)nc1=O)CCC2 | inactive: 3.53% | –
13 | O=C(CSc1nnc2ncccn12)Nc1cccc2ccccc12 | – | inconclusive: 0.0041 µM [rising, full curve, poor fit]
14 | C[C@@H]1CCC(=O)N(C[C@@H](C)CC#N)CC1 | – | inconclusive: 0.0731 µM [rising, full curve, poor fit]
15 | CCc1ccc(C(=O)NNc2ccc(F)cc2)cc1 | – | inconclusive: 20.6 µM [cytotoxic, single point]
16 | CC(Sc1ccc(Cl)cc1)C(=O)NNC(=O)c1ccccc1O (configuration not stated) | – | inconclusive: 18.4 µM [cytotoxic, single point]
17 | CC1CCCCN1C(=O)Cn1c(SCC(=O)N(C)c2ccccc2)nc2ccccc21 (configuration not stated) | inactive: -5.75% | –
18 | COc1ccc(NC(=O)N(C)[C@H]2C[C@H]3c4[nH]c5ccc(-c6ccc7c(c6)OCO7)cc5c4CCN3C[C@H]2[C@H](C)O)cc1 | – | inconclusive: 25.9 µM [cytotoxic, single point]
19 | COCCNC(=O)CN(C(=O)Cn1nnc2ccccc21)c1cc(C)cc(C)c1 | – | inconclusive: 5.8 µM [rising, partial curve, poor fit]
20 | CC1NC(C)c2c(ccc3ccccc23)O1 (configuration not stated) | – | inconclusive: 13 µM [cytotoxic, partial curve, poor fit]
21 | Cc1ccc(S(=O)(=O)N2CCCC2=O)c(C)c1N(C)S(C)(=O)=O | inactive: 17.9% | –
22 | O=C(C1CCCN(c2ncnc3c2nc2n3CCCCC2)C1)N1CCN(c2cccc(Cl)c2)CC1 (configuration not stated) | – | inconclusive: 29.1 µM [cytotoxic, single point]
23 | COc1ccc(C[C@H]2CN3C(=NC[C@@H]3Cc3ccc(O)cc3)N2CCNC(=O)c2ccc(C)c(Br)c2)cc1 | – | active: 16.4 µM
24 | Cc1nnc(-c2cccc(Br)c2)c2cn(-c3ccccc3)nc12 | – | inconclusive: 29.1 µM [cytotoxic, single point]

Row | Compound | activity change, negative = cytotoxic | Potency
25 | Cc1ccc(C(=O)N/C(=C/c2ccc(Cl)cc2)C(=O)N2CCOCC2)cc1 | inactive: -10.6% | –
26 | OC(CN1CCCCC1)Cn1c2ccc(Cl)cc2c2cc(Cl)ccc21 (configuration not stated) | – | inconclusive: 29.1 µM [cytotoxic, single point]
27 | CCc1ccc2[nH]c(=O)c(CN(CCCN3CCOCC3)C(=O)Nc3ccc(Cl)cc3)cc2c1 | – | inconclusive: 18.4 µM [cytotoxic, single point]
28 | NC(=O)C1CCN(C2=C(NS(=O)(=O)c3ccc(Br)cc3)C(=O)c3ccccc3C2=O)CC1 | – | inconclusive: 20.6 µM [cytotoxic, single point]
29 | COC(=O)c1ccc(/C=C/c2c(-c3ccsc3)oc3ccc(N4CCOCC4)cc23)cc1 | – | inconclusive: 18.4 µM [cytotoxic, single point]
30 | O=C(CSc1n[nH]c(-c2ccccc2Cl)n1)N1CCN(c2ccccc2)CC1 | inactive: 0.256% | –
31 | O=C(CCCN1C(=O)/C(=C/c2ccccc2Cl)SC1=S)N1CCOCC1 | – | inconclusive: 25.9 µM [cytotoxic, single point]
32 | CCOc1ccc(C(CC(=O)O)NC(=O)C23CC4CC(CC(C4)C2)C3)cc1 (configuration not stated) | inactive: 2.56% | –
33 | Cc1ccc(-c2noc(CCC(=O)N3CCN(c4cccc(C(F)(F)F)c4)CC3)n2)cc1 | – | inconclusive: 16.4 µM [cytotoxic, single point]
34 | CCCc1ccc(C2Sc3ccccc3NC3=C2C(=O)c2ccccc23)cc1 (configuration not stated) | – | inconclusive: 23.1 µM [cytotoxic, partial curve, poor fit]
35 | CCOc1ccc(/C(C)=N/NC(=O)C(OC)c2ccccc2)cc1 (configuration not stated) | – | inconclusive: 29.1 µM [cytotoxic, single point]
36 | CCOc1ccc(C(C(=O)NC2CCCC2)N(Cc2ccccc2)C(=O)c2nsc(Cl)c2Cl)cc1 (configuration not stated) | – | active: 20.6 µM
37 | O=C1NC(=S)NC1Cc1ccc(O)cc1 (configuration not stated) | – | inconclusive: 4.11 µM [rising, partial curve]
38 | Cc1cccc(C)c1-n1nnnc1C(c1ccnc2ccccc12)N(CCC#N)Cc1ccccc1 (configuration not stated) | – | inconclusive: 29.1 µM [cytotoxic, single point]
39 | COc1ccc(NC(=O)NC2CCCCCCC2)cc1OC | inactive: 15.9% | –
40 | COc1cc2c(cc1OC)CN(CC(=O)Nc1ccccc1SC)CC2 | inactive: -2.7% | –
41 | COc1ccccc1C(=O)Nc1nc(-c2ccc(S(=O)(=O)N3CCOCC3)cc2)cs1 | – | active: 14.6 µM
42 | COCC1CCN(C(=O)c2cc(COc3cc(C)c(Cl)c(C)c3)on2)C1 (configuration not stated) | inactive: -2.87% | –
43 | Cc1ccc(S(=O)(=O)NN2CCCCCC2)cc1 | inactive: 6.89% | –
44 | Cc1cc2nc(C(C)(C)C)c(Cc3ccsc3)n2c(C)c1Br | inactive: -5.31% | –
45 | O=C(CNCc1ccc(Cl)cc1)Nc1ccc(C(=O)N2CCCCC2)cc1 | inactive: -0.903% | –
46 | CC(O)CO (configuration not stated) | inactive: 0% | –
47 | CCOC(=O)N1CCN(C(=O)c2cn(C)c(=O)c3c2c2ccccc2n3C)CC1 | – | inconclusive: 35.5 µM [cytotoxic, single point]
48 | COC(=O)/C(N=Nc1cccc(C(F)(F)F)c1)=C(\C)O | – | inconclusive: 20.6 µM [cytotoxic, single point]

4 records drawn at random from those above:
Row | Compound | activity change, negative = cytotoxic | Potency
45 | O=C(CNCc1ccc(Cl)cc1)Nc1ccc(C(=O)N2CCCCC2)cc1 | inactive: -0.903% | –
32 | CCOc1ccc(C(CC(=O)O)NC(=O)C23CC4CC(CC(C4)C2)C3)cc1 (configuration not stated) | inactive: 2.56% | –
43 | Cc1ccc(S(=O)(=O)NN2CCCCCC2)cc1 | inactive: 6.89% | –
42 | COCC1CCN(C(=O)c2cc(COc3cc(C)c(Cl)c(C)c3)on2)C1 (configuration not stated) | inactive: -2.87% | –

(listing goes on)

Row | Compound | activity change, negative = cytotoxic | Potency
49 | O=C(O)C(CCC(C(=O)O)c1ccccc1)c1ccccc1 (configuration not stated) | – | inconclusive: 29.1 µM [rising, single point]
50 | Cc1ccccc1OCC(=O)NCCCNC(=O)c1cccnc1 | inactive: 16.4% | –
51 | COc1ccc(NC(=O)COC(=O)c2c(C)noc2C)cc1Cl | – | inconclusive: 32.6 µM [rising, single point]
52 | CCOC(=O)N1CCN(S(=O)(=O)c2ccc(C(=O)Nc3sc4c(c3C(=O)OC)CCN(C)C4)cc2)CC1 | – | inconclusive: 25.9 µM [cytotoxic, single point]
53 | COc1ccc(CN(C(=O)c2snc(C(N)=O)c2N)C(C(=O)NC(C)(C)C)c2ccco2)cc1 (configuration not stated) | inactive: 4.51% | –
54 | CC(=O)OC(C[N+]1(C)CCCCCC1)c1ccccc1 (configuration not stated) | inactive: 0.278% | –
55 | Cc1cc(=O)oc2c(C)c(OCC(=O)N3CCN(c4ccc(F)cc4)CC3)ccc12 | inactive: -0.0938% | –
56 | Cc1n(C)c2cc(Cl)ccc2[n+]1Cc1ccccc1 | – | inconclusive: 20.6 µM [cytotoxic, single point]
57 | COc1cccc(C2c3cc4c(cc3OC(NNC(N)=O)C2C)OCO4)c1O (configuration not stated) | – | active: 1.46 µM
58 | C=CCn1c(SCc2csc(C)n2)nc2sc3c(c2c1=O)CCCCC3 | inactive: -0.254% | –
59 | O=C(Cc1ccccc1)Nc1cc2c(cc1Cl)OCCCO2 | inactive: 1.83% | –
60 | CC(=O)NC(c1ccc(C)cc1)c1cc([N+](=O)[O-])c2cccnc2c1O (configuration not stated) | – | inconclusive: 18.4 µM [cytotoxic, partial curve, poor fit]
61 | Cc1cccc(NC(=O)CCc2c(C)nc3nc(CNC(=O)c4cccc(F)c4)nn3c2C)c1 | inactive: -5.6% | –
62 | C[C@@H]1CN([C@H](C)CO)C(=O)Cc2cc(NS(=O)(=O)c3ccc(Cl)cc3)ccc2O[C@H]1CN(C)Cc1ccc(C(F)(F)F)cc1 | – | inconclusive: 29.1 µM [cytotoxic, single point]
63 | O=C(CCS(=O)(=O)c1ccccc1)Nc1nc2ccc(F)cc2s1 | – | inconclusive: 18.4 µM [cytotoxic, single point]
64 | C[C@H]1CCC/C=C/[C@@H]2C[C@H](O)C[C@H]2[C@H](O)[C@H](S(=O)c2ccc(O)cc2)CC(=O)O1 (some centres not stated) | – | active: 0.0092 µM
65 | COc1ccc(NC(=O)CSc2nc3ccccc3c(=O)n2CCCN2CCCCC2)c(OC)c1 | – | inconclusive: 23.1 µM [cytotoxic, single point]
66 | COC(=O)C1CCCN1C(=O)C12CC3CC(CC(C3)C1)C2 (configuration not stated) | inactive: -10.8% | –
67 | COc1ccc(-c2noc(CSc3nnc(-c4ccncc4)n3-c3ccc(C)cc3)n2)cc1OC | inactive: -8.35% | –
68 | C=C[C@]1(C)C=C2C(=O)[C@@]3(O)OC(=O)[C@@]4(CCCC(C)(C)[C@H]34)[C@@]2(O)CC1 | – | active: 4.61 µM
69 | COc1cc(C(=S)N2CCCC2)cc(OC)c1OC | inactive: 5.28% | –
70 | COCCCNc1c2c(nc3ccccc13)CCC2 | inactive: -2.8% | –
71 | O=C(Nc1ccccn1)c1cccc(S(=O)(=O)N2CCc3ccccc3C2)c1 | inactive: 1.6% | –
72 | Cc1ccc(-c2csc(N3CCC[C@@H]3C(=O)NCCn3c(C(F)(F)F)nc4ccccc43)n2)cc1 | – | inconclusive: 10.3 µM [cytotoxic, partial curve, poor fit]
